Source: paper PMC3254606

The substances below were run against T1, GST-apoptin (Chicken Anemia Virus) (UniProt P54094) (assay: pull-down; 5–10 µg GST-apoptin with 500 µg total cell lysate on glutathione sepharose beads, overnight at 4°C, IP buffer (50 mM Tris-HCl pH 8.0, NaCl 150 mM, 0.5% detergent, EDTA 1 mM, protease and phosphatase inhibitors), at least six washes; immunoblot with anti-Bcr-Abl or anti-Bcr antibody (Fig. 2B, 2D); only the target purified).
T1 sequence: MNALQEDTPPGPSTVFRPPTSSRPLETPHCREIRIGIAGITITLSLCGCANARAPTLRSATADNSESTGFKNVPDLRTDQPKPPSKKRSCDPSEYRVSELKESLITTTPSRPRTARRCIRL

Substance	binding
Bcr-Abl^p210ΔSH2 ΔSH3	no binding
Bcr-Abl^p210ΔSH3-R1053L	no binding
Bcr-Abl^p210P1013L-R1053L	binds weakly
Bcr-Abl^p210ΔSH2	binds

These are yes or no findings as the source states them, for the method shown. In cells and extracts the contact can be indirect. A result given as binding can be weak or reduced; the word gives no strength. Sequences can lack the tags named with a protein.
